Results published in patent US10987357B2, “Aerosolized fluoroquinolones and uses thereof” (Horizon Orphan, LLC, priority 2005, dated 2021).

Experimental: In the second test, the tolerability and taste of a small aerosol sample from a 0.5 ml aliquot of the test formulation was determined in a single healthy human volunteer, following nebulization in a PARI eFlow nebulizer (Table 12).
The tolerability and taste of the drug during a very brief administration period and for a period of 10 minutes post administration were monitored. Tolerability parameters were of the following types: (i) cough, cough sensation, or sneezing (ii) irritation, burning or tightness of throat, (ii) irritation or runniness in nasal passages or eyes, (iii) irritation, burning or tightness of the lungs or shortness of breadth, and (iv) dizziness, headache, nausea or other systemic effects.

CCn1cc(C(=O)O)c(=O)c2cc(F)c(N3CCN(C)CC3)cc21 [Pefloxacin]
Aerosol Tolerability and Taste (aerosol from 0.5 ml aliquot, single volunteer): chemical taste, some cough | cough on aerosol exposure (in vivo): associated with cough
